According to patent publication US10646489B2, “Compositions and methods for increasing energy metabolism” (NuSirt Sciences, Inc., priority 2012, dated 2020):
For some of these results: At least one structure is not confirmed: it was looked up by name or label, or the drawing left a doubt. Some results were stated once for a whole list of compounds, not compound by compound.

Assays:
[1] = Dose-response of the PDE inhibitor alone (concentration without effect); type: cell-based
Description: Vinopocetine, which is a PDE 1 inhibitor, was tested in combination with leucine, HMB, and resveratrol for its effects on energy metabolism.
Two PDE 3 inhibitors were studied, amrinone and cilostamide, in combination with leucine and HMB for their effects on energy metabolism.
Two PDE 4 inhibitors were studied, rolipram and YM796, in combination with leucine and HMB for their effects on energy metabolism.
Icariin is a naturally occurring flavonol with significant PDE 5 inhibitory activity.

C2C12 myotubes = conditions: recent report; cited from earlier work

Compound	concentration that exerts no effect (dose-response) [1]	effect on aerobic metabolism (C2C12 myotubes)
Nc1cc(-c2ccncc2)c[nH]c1=O [amrinone]	≤ 10 nM	
CN1CC(=O)N2[C@H](c3ccc4c(c3)OCO4)c3[nH]c4ccccc4c3C[C@@H]2C1=O [Tadalafil]		suppress
CN(C(=O)CCCOc1ccc2[nH]c(=O)ccc2c1)C1CCCCC1 [cilostamide]	≤ 10 nM	
COc1ccc(C2CNC(=O)C2)cc1OC1CCCC1 (stereo not shown) [rolipram]	≤ 0.1 nM	
